In the odorant receptor screen of Mainland et al. (2015):
Values joined by “and” are separate entries in the source; they are usually repeats but may differ in a detail not shown here. Identical values can stand only once. The list shows a part of the results. Single wells; the ratio to wells without odorant was worked out here, and repeats agree poorly.

Assays:
Test in all cases: odorant receptor activation (CRE luciferase / Renilla) (fold of no-odor wells); higher = more activation
Conditions in all cases: 100 µM
[1] = test system: OR4M2 clone 1278
[2] = test system: OR4N2 clone 1270
[3] = test system: OR4N4 clone 1277
[4] = test system: OR4N5 clone 1262
[5] = test system: OR4P4 R231C clone 1398
[6] = test system: OR4P4 clone 1139
[7] = test system: OR4Q3 clone 1411
[8] = test system: OR4S1 clone 1283
[9] = test system: OR4S2 clone 1175
[10] = test system: OR4X2 clone 1193

SMILES	odorant receptor activation [1]	odorant receptor activation [2]	odorant receptor activation [3]	odorant receptor activation [4]	odorant receptor activation [5]	odorant receptor activation [6]	odorant receptor activation [7]	odorant receptor activation [8]	odorant receptor activation [9]	odorant receptor activation [10]
CCC(C)=O [2-butanone]	1.5	1.05	1.23	0.824	0.979	0.723	0.696	0.992	0.912	1.07
CCCCOC(C)=O [butyl acetate]	0.775	0.818	0.723	0.8	0.213	1.17	0.302	0.665	1.28	1.09
CCOc1cc(C=O)ccc1O [ethyl vanillin]	1.27 and 1.13	1.32 and 1.17	1.77 and 1.02	3.05 and 1.54	0.802 and 1.12	1.45 and 1.17	1.37 and 1.47	1.01 and 0.949	2.39 and 0.922	1.74 and 1.13
CS [methanethiol]	0.827	0.795	0.805	0.836	0.841	1.03	1.03	0.78	0.97	1.26
